PMC5606850, “Acidic C-terminal domains autoregulate the RNA chaperone Hfq” (eLife, 2017)
Results are given in words; binding and its absence hold for the method and conditions named.

Biological target: T1, CTDpos-FITC (CTD peptide containing the mutated C-terminal tip RSNKTN) (E. coli)
T1 sequence (peptide, FITC-Ahx on the N-terminus; C-terminal COOH): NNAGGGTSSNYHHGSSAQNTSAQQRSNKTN
Test: fluorescence polarisation; 45 nM FITC-labelled peptide titrated with Hfq65 or variant (0–100 µM Hfq monomer), 50 mM Tris·HCl pH 7.5 (low salt), 30 °C, duplicate, single-site isotherm; Kd in Hfq monomer; both purified

“E. coli Hfq65 (Hfq core; truncated variant lacking the CTD) (from UniProt P0A6X3 1-65) (domain or fragment)” was tested, and the binding was “no binding (tested: 0–100 µM Hfq monomer)”.
